Assay results from patent US12264170B2, “Antimicrobial organosilanes” (TOPIKOS SCIENTIFIC, INC., priority 2019, dated 2025).
Some of these results come from one statement about several compounds together. At least one compound was matched to its structure with a doubt left.

System: P. aeruginosa ATCC 27853
Assay: MIC microdilution assay
Type: cell-based, Pseudomonas aeruginosa
Conditions: CAMHB, 35±2° C. 18 to 20 hours, two values given
Description: Strain numbers starting with “ATCC” were acquired from the American Type Culture Collection (Manassas, VA), while strain numbers starting with “CDC” were acquired from the Centers for Disease Control and Prevention (Atlanta, GA). All strains were maintained as −80° C. frozen glycerol stocks. S. aureus and P. aeruginosa were grown overnight on Tryptic Soy Agar (TSA) plates at 35±2° C., ambient atmosphere, while S. pyogenes was grown overnight on TSA+5% defibrinated sheep blood at 35±2° C., 5% CO2. All fungal species (i.e. C. albicans, C. auris and C. herbarum) were grown on Sabouraud Dextrose Agar (SDA) plates. C. herbarum was grown at 25±2° C. for 5 to 7 days, while all other fungal strains were grown at 35±2° C. overnight.
Test articles Compound 2 (batch #2G13A0.368) and Compound 23 (batch #2G17A0.372) were received and stored at 4° C. The antibiotic Tobramycin and antifungal Amphotericin B were used as quality control (QC) compounds for the MIC assay. […]
All bacterial-strain MIC 96-well plates were incubated at 35±2° C. for 18 to 20 hours, while all Candida MIC 96-well plates were incubated at 35±2° C. for 24 to 48 hours. […] After incubation, the 96-well plates were examined visually and on a spectrophotometer at absorbance OD650. […]

## CCCCCCCCCCCCCCCCCC[N+](C)(C)CCC[Si](OCC(CO)(CO)NCC(O)CS(=O)(=O)[O-])(OCC(CO)(CO)NCC(O)CS(=O)(=O)[O-])OCC(CO)(CO)NCC(O)CS(=O)(=O)O.[Cl-].[Na+].[Na+] (stereo not shown) [Compound 2]
  MIC: > 64 µg/mL
